Results published in the supplement of paper PMC12889115.
Some of the results follow. These are raw signals, not scaled to a control.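 First-pass screen: polymyxin B was added at a level that permeabilizes the Salmonella outer membrane while sparing the inner membrane. DMSO wells, with and without polymyxin B, defined maximum growth. Because plates differed from one another, each plate's data were ranked separately and the compounds with the lowest OD600 were carried forward as hits.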

Test system: Salmonella enterica serovar Typhimurium SL1344
Assay: bacterial growth OD600 after 18 h with compound and polymyxin B; higher = more bacterial growth (less inhibition)
Settings: 50 µM, Mueller-Hinton broth

Row | Compound | bacterial growth OD600 (polymyxin B 1 µg/mL) | bacterial growth OD600 (polymyxin B 0.75 µg/mL)
1 | CSc1ccccc1OCc1cc(C(=O)N(C)Cc2ccc(F)cc2)no1 | 0.771 | 
2 | O=C(c1ccc(NCC2CCOCC2)nc1)N1CCCCC1CCn1cccn1 (stereo unspecified) | 0.948 | 
3 | CCOC(=O)C1(CCc2ccccc2)CCCN(C(=O)c2c(C)cc(C)[nH]c2=O)C1 (stereo unspecified) |  | 0.877
4 | O=C(c1cc(COc2cccc(F)c2)[nH]n1)N1CC[C@H](O)C1 | 0.892 | 
5 | CC1=C(C(=O)N2CCCC(N3CCN(Cc4ccc5c(c4)OCO5)CC3)C2)OCCO1 (stereo unspecified) | 0.923 | 
6 | CCOC(=O)C1(Cc2ccc(Cl)cc2)CCN(Cc2ccccn2)CC1 | 0.778 | 
7 | COc1ccc(CN(C)C(=O)C2CCC(=O)N(CCN3CCOCC3)C2)c2cccnc12 (stereo unspecified) | 1.25 | 
8 | Cc1ccccc1CC(C1CCN(C(=O)c2ccc3ccccc3n2)CC1)N(C)C(=O)Cn1cccn1 (stereo unspecified) |  | 0.838
9 | CC1(C)C(=O)NCCN1C(=O)CC(c1cccc(Cl)c1)c1ccccc1O (stereo unspecified) | 1.26 | 
10 | CC(C)NC(=O)CN1CCN(C(=O)CSc2ccc3nnc(-c4cccnc4)n3n2)CC1 |  | 0.944
11 | O=C(NC1CCCN(c2ncccn2)C1)c1c(F)cccc1Cl (stereo unspecified) | 0.864 | 
12 | COc1cc(CN2CCC(C3(Cc4ccccc4Cl)NC(=O)N(CC4CC4)C3=O)CC2)ccc1O (stereo unspecified) |  | 0.837
13 | COc1ccccc1CCC(=O)Nc1cnn(CC(=O)N2CCC(Sc3ccc(F)cc3)CC2)c1 |  | 0.02
14 | CC(C)CC(=O)C(=O)NC1CC(=O)N(Cc2cccc(F)c2)C1 (stereo unspecified) | 0.853 | 
15 | Cc1ocnc1C(=O)N1CCC2(CCCN(Cc3ccc(F)c(F)c3)C2=O)C1 (stereo unspecified) | 1.13 | 
16 | COC(=O)CN(C)C(=O)Cc1c2c(n(CCc3ccccc3)c1C)CCCC2=O | 0.822 | 

Row | Compound | bacterial growth OD600 (polymyxin B 1 µg/mL) | bacterial growth OD600 (polymyxin B 0.75 µg/mL)
17 | CCN(Cc1ccccc1)C(=O)c1cc(COc2ccc(Cl)cc2OC)on1 | 1.22 | 
18 | C=CCC(=O)N1CCCC(CCCc2ccccc2)(C(=O)OCC)C1 (stereo unspecified) | 0.011 | 
19 | COc1cccc(CCC(=O)N2CCC(CCC(=O)N(C)Cc3ccccc3)CC2)c1 | 0.937 | 
20 | COc1ccccc1CCN1CCC(CN(C)C(=O)CCSC)CC1 | 1.15 | 
21 | Cc1ccc(-c2n[nH]cc2CN2CCC(OCc3cccnc3)CC2)cc1C | 0.927 | 
22 | COc1ccc(CNC2COc3c(cccc3OC)C2)c(F)c1 (stereo unspecified) |  | 0.873
23 | CCOC(=O)C1(Cc2ccccc2C)CCCN(C(=O)Nc2ccc3c(c2)OCO3)C1 (stereo unspecified) | 0.97 | 
24 | CN(C(=O)Cn1cccn1)C(Cc1ccccc1)C1CCN(C(=O)c2cccc(-n3cccn3)c2)CC1 (stereo unspecified) |  | 0.904
25 | O=C(NC1CCOC1)c1cc(COc2ccc3c(c2)CCCC3)on1 (stereo unspecified) |  | 0.009
26 | CO[C@H]1[C@H](NC(=O)c2ccco2)c2ccccc2C12CCN(Cc1ccc(C)c(C)c1)CC2 |  | 0.731
27 | CCc1n[nH]c(C(=O)N2CCC(n3nccc3NC(=O)C(C)(C)C)CC2)c1C | 0.952 | 
28 | O=C(C1CC12CCC2)N1CCc2onc(-c3ccc4c(c3)OCO4)c2C1 (stereo unspecified) |  | 0.007
29 | COC1CCCN(C(=O)CC2(c3ccccc3C)CC(=O)N(Cc3cccnc3)C2=O)C1 (stereo unspecified) |  | 0.845
30 | O=C(NCc1ccco1)NC1CC(=O)N(Cc2cccc3ccccc23)C1 (stereo unspecified) | 0.663 | 
31 | CCO[C@H]1[C@H](NC(=O)c2cccnc2)c2ccccc2C12CCN(C(=O)c1n[nH]c3ccccc13)CC2 |  | 0.877

Given as tab-separated lines: entries from further up.
Row	Compound	bacterial growth OD600 (polymyxin B 1 µg/mL)	bacterial growth OD600 (polymyxin B 0.75 µg/mL)
25	O=C(NC1CCOC1)c1cc(COc2ccc3c(c2)CCCC3)on1 (stereo unspecified)		0.009
26	CO[C@H]1[C@H](NC(=O)c2ccco2)c2ccccc2C12CCN(Cc1ccc(C)c(C)c1)CC2		0.731
